What all share (assay): protein microarray (ProtoArray v5.0), streptavidin-Alexa Fluor 647
Holding throughout (settings): 3'-biotin; 20 mM Tris (pH 7.5), 5 mM MgCl2, 100 mM KCl, 0.1% Tween-20, A/T-rich and random oligonucleotide blockers; temperature not stated; high values mean tight binding

The subject of experiment [1] is LARP6 (human).
For experiment [2], the system named is LAS1L (human).
For experiment [3], the system named is LASS2 (human).
The test system of experiment [4] is LAT2 (human).
Experiment [5] has as its system LCN1 (human).
The subject of experiment [6] is LCP1 (human).
Experiment [7] has as its system LDHB (human).
The subject of experiment [8] is LENG4 (human).
Experiment [9] deals with LEPREL1 (human).
Experiment [10] has as its system LETM2 (human).

1 sequence from publication PMC5996148 can be followed below.

Some of the results follow.

For the sequence “GGGAGGCTGAGGCAGG [G4-1 biotinylated (PQS2)]”, the binding signal in experiment [1] was -0.256 z-score; in experiment [2], -0.336 z-score; in experiment [3] it was -0.242 z-score; in [4], -0.295 z-score; in [5], -0.353 z-score; in experiment [6], -0.342 z-score. The binding signal in [7] was -0.322 z-score; in [8] it was -0.312 z-score; in experiment [9], -0.289 z-score; in [10] it was -0.35 z-score.
